Experimental data: patent publication US20090305254
For at least one entry, the source does not settle the construct or the ends of the probe.

Test system: IgE
Experiment: SPR
Details: biotinylated aptamer on SA chip, PBS with 1 mM MgCl2 pH 7.4; concentration-dependent signal; electrophoresis shows IgE displaces 14-mer capture oligonucleotide (SEQ 6); purified native protein; label: biotin (SPR); single-stranded DNA

## TCACGTTTATCCGTCCCTCCTAGTGGCGTGA [CaAp-1 IgE-binding aptamer]
  binding result: binds
